Results as given in publication PMC3841102, “Activation of Smurf E3 Ligase Promoted by Smoothened Regulates Hedgehog Signaling through Targeting Patched Turnover” (PLoS Biology, 2013).
Results are given in words; binding and its absence hold for the method and conditions named. Sequences can lack the tags named with a protein.

Protein sequences, listed by entry. Tags and fused reporters are not part of them. Lines headed by an entry give the natural chain unless they say otherwise; changes in a name come on top.
UniProt P18502: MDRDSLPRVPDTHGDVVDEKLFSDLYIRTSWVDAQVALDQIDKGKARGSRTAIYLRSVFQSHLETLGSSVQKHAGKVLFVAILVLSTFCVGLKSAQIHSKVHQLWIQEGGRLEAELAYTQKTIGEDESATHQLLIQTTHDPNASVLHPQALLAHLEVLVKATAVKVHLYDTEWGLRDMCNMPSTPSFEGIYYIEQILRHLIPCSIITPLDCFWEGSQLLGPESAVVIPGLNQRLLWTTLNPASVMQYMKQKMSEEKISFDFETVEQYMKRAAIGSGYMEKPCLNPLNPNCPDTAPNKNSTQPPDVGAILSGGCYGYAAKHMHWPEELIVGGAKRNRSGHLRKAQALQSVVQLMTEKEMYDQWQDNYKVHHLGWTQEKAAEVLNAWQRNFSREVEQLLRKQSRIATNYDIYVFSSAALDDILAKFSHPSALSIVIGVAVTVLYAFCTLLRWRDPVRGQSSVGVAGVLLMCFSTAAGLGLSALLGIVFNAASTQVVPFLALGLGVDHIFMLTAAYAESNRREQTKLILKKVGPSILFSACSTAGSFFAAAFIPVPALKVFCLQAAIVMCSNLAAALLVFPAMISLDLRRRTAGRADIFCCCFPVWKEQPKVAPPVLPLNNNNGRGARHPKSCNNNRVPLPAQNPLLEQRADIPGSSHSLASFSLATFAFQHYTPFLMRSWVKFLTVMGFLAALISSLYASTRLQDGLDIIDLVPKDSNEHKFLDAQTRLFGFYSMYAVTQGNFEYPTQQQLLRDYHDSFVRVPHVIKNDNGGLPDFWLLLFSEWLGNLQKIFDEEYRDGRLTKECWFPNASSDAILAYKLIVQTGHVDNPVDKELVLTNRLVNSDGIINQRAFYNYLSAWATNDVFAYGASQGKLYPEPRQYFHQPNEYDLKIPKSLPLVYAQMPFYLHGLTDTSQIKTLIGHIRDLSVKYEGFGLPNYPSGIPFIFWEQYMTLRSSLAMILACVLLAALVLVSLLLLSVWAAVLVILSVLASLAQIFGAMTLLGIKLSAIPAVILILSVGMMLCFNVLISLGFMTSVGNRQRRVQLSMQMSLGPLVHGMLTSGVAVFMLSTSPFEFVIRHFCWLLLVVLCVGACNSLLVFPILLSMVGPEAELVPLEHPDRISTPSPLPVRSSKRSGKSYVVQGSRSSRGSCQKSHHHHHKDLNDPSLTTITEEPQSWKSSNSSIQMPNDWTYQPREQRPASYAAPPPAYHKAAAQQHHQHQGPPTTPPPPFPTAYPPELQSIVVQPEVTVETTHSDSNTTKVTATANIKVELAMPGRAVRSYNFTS

Target: GST:Flag:Ptc^CTD carrying PPAY mutations (PPAY-AAAA) (Drosophila) (UniProt P18502)
Assay: pull-down; GST fusion protein loaded glutathione beads incubated with 200 ng purified His:Smurf; 50 mM Tris-Cl pH 8.0, 200 mM NaCl, 1 mM EDTA, 1% NP-40, 2% BSA, 10 mM DTT, 1 mM PMSF; 4°C, 1 h; Western blot; both purified

B1: His:Smurf protein (full length Drosophila Smurf) (enzyme, UniProt Q9V853 1-1061)
chain: MNKLDYPRRNGTHKVRITILCARNLARKDLFRLPDPFAKVQVDGTGQVYSTEISKSSLDPKWNAHYDLFLGIGDAITITVWNQRKIHKGSGFLGCVRIPAFNIQSLKGAGFQRLDLGKLSPDDDELVRGQIIISLLSKDGPSSGNPLAIVGPSGDVRGPSEDDSSEDSLPEGWEERRTDNGRVYYVNHATKSTQWDRPRQPGVVGSSHATSPQQRHNTHNGNSGDRQAPAGPTRSTTCTNLMNNGHRSRDLSVTASDERRHSTEILSSVGKENTSPTTPVSATTTPGKKTSSSNSSSAGGRTLEQRPTNEPATPTSSTTSASVRLHSNDNHVKTPKHQTNGHAPPESTPTSPTGQQNYVNGNAQNGSTSGNGSGQAAQPQSASNGWTQEDAATTTSPSTTTSPPRHSQSPPTPNISPPASVTPSANGNVHSPNANSTPAGSGGGSRSYTAATPGQRSQRRSSRQQGEESSTRRRSSRGTRNGGTSGGGGGGGSGQRYASAAIAAANQAARPFLDLPPGYEMRTTQQGQVYFYHIPTGVSTWHDPRIPRDFDTQHLTLDAIGPLPSGWEQRKTASGRVYFVDHNNRTTQFTDPRLSGSILQMIRRGTVPPTSAANAGTPAPPSATPATPSAAAAVPPQATPASNATPTTLTTTTNPPHRIVPDLPQGLLEGADLLPKYRRDLVGKLRALRTELQTMQPQSGHCRLEVSRNEIFEESYRLIMKMRAKDMRKRLMVKFKGEEGLDYGGVAREWLHLLSREMLNPQYGLFQYSRDDHYTLQINPDSGVNPDHLSYFHFVGRTLGIAVFHGHCLDGGFTTPFYKQLLNKPITLGDIEGVDPDLHRSLTWMLESNISGIIESTFSVENNSFGALVVHELKPGGASIPVTEENKREYVKLYVNYRFMRGIEQQFLALQKGFCELIPSHLLRPFDERELELVIGGISSIDVNDWRNNTRLKHCTNETTQVLWFWQVVESYSSEMRARLLQFVTGSSRVPLQGFRALQGSTGAVGPRLFTIHLTADVPTQNLPKAHTCFNRIDLPPYETYQLLCDKLTQAVEETCGFAVE
  binding: no binding (tested: 200 ng of purified His:Smurf)
